Measurements from article PMC4709948.
Results are given in words; binding and its absence hold for the method and conditions named. In cells and extracts the contact can be indirect. Some binding calls cover weakened binding; strength is not graded here.

Chains of the proteins cited; added tags and fusions are not shown. Residues count along the entry.
UniProt Q15109, residues 23-404: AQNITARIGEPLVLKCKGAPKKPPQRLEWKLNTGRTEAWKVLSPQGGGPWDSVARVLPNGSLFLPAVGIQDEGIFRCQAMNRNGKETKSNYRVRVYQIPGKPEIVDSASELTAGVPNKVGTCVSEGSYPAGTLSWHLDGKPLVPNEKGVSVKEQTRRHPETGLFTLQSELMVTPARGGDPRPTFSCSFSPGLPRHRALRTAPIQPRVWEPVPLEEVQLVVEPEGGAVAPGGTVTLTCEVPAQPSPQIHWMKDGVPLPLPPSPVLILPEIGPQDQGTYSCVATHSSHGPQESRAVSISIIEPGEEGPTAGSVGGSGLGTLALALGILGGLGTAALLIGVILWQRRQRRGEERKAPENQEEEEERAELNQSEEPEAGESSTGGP
UniProt Q62151, residues 23-402: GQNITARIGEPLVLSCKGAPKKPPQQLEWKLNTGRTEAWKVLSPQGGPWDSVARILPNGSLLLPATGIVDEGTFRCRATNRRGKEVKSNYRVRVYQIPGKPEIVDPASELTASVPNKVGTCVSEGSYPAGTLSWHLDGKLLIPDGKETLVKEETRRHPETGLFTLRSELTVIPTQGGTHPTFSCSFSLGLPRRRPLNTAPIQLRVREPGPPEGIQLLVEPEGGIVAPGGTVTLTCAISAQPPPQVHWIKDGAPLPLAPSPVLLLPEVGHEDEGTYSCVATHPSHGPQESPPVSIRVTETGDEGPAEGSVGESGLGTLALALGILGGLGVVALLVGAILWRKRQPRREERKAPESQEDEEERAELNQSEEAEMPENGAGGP
UniProt Q8IW41: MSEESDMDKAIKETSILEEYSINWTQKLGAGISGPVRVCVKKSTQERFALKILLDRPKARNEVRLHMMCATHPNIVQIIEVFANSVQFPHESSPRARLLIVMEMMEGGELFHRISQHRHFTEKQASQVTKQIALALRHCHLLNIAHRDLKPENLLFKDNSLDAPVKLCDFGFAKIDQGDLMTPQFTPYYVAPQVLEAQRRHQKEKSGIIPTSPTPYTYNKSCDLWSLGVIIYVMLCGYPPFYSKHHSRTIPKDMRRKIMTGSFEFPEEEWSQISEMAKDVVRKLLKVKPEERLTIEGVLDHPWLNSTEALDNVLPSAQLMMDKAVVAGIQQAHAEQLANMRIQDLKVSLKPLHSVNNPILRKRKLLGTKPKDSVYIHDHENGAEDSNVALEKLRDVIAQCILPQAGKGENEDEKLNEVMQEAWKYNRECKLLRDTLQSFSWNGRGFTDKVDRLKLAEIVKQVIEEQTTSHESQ
UniProt O54992: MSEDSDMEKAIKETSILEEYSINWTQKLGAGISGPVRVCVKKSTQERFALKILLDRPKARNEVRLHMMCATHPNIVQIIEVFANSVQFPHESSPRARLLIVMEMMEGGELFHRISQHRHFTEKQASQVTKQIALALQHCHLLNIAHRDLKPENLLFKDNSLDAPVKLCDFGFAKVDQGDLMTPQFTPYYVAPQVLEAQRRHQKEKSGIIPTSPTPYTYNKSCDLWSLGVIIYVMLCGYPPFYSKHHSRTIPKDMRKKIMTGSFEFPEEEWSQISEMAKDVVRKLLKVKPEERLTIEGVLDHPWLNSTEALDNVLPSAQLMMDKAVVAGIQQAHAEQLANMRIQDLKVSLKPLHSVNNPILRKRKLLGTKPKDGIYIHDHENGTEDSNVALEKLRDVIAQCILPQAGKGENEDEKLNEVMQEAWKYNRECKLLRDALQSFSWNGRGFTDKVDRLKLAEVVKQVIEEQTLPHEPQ

Columns and labels:
[1] = molecular target: RAGE overexpressed in SH-SY5Y cells (human) (UniProt Q15109); assay: proximity ligation; in situ, SH-SY5Y cells co-transfected with RAGE and PRAK, treated with DMSO or 2 uM monomeric Abeta for 6 h; Duolink
[2] = molecular target: endogenous RAGE of SH-SY5Y cells (human (endogenous in SH-SY5Y)) (UniProt Q15109); assay: co-IP; endogenous proteins, SH-SY5Y cell lysates (RIPA); IP with RAGE antibody or normal IgG, western blot
[3] = molecular target: endogenous RAGE of mouse brain (mouse (endogenous in brain)) (UniProt Q62151); assay: co-IP; endogenous proteins, total brain lysates (RIPA) of 3 months wild-type littermates and Tg6799 mice; IP with anti-RAGE antibody, western blot with anti-PRAK antibody
[4] = molecular target: GFP-tagged PRAK, transfected in CHO cells (UniProt Q8IW41); assay: co-IP; lysates of CHO cells transfected with RAGE and GFP-tagged PRAK, 1 % CHAPS buffer; IP with anti-GFP antibody, western blot with anti-RAGE antibody

In the case of “PRAK overexpressed in SH-SY5Y cells (from UniProt Q8IW41 1-473) (enzyme)”, the binding [1] is reported as “binds”.
With “endogenous PRAK of SH-SY5Y cells (from UniProt Q8IW41 1-473) (enzyme)” the binding [2] was “binds”.
“endogenous PRAK of mouse brain (from UniProt O54992 1-473) (enzyme)” was tested, and the binding [3] was “binds”.
“full-length human RAGE, transfected in CHO cells (from UniProt Q15109 23-404) (receptor)” was tested, and the binding [4] was “binds”.
